# Primary screen of a compound library

Amino acid sequences for entries named in this document (tags omitted).
UniProt E9BF75, entry or part of it: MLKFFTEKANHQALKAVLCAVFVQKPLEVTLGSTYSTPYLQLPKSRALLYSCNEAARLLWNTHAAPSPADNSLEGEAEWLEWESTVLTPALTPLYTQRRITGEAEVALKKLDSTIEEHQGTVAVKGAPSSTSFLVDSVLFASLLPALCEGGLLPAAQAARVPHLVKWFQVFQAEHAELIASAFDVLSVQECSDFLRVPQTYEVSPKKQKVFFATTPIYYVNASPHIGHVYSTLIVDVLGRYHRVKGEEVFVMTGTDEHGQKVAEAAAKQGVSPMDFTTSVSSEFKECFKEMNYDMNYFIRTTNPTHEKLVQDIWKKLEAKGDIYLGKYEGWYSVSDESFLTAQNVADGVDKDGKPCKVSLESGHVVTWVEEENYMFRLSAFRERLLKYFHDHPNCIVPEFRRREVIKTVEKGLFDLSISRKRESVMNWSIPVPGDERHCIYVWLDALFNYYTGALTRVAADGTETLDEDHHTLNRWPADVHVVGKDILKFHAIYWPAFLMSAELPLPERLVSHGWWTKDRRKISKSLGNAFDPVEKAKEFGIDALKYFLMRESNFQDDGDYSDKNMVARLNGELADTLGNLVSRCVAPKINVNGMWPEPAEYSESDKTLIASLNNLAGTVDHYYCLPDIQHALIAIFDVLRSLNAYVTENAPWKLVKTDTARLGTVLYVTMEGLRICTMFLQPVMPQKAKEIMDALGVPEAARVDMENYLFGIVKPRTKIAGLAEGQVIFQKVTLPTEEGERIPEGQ

Measurements from “University of Dundee, Small-Polar-MMV Screening Library” (2021), ChEMBL document CHEMBL3988442.

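Methionyl-tRNA synthetase (putative), Leishmania donovani (UniProt E9BF75). Primary screen of methionyl-tRNA synthetase; the read-out is not stated. The test concentration is not given. The values are filed as inhibition. About 68,000 compounds were tested under these conditions; 0.035% (about 24) showed 50% or more at least once.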

Results are percentages, as filed. How 0% and 100% were set is not recorded. Most values in the screen are low, and negative values occur. The compounds are a random part of those screened.

Result for CC1CCC(NS(=O)(=O)CC(=O)NC(C2CC2)C2CC2)CC1 (centres undefined) was 11.11%. COC(=O)[C@@H]1Cc2c[nH]c3cccc(c23)[C@H](CC(C)C)N1 read 14.58%. For N#Cc1ccc(NCc2cccnc2N2CCC(C(N)=O)CC2)cn1 the result was 16.72%. With CC(C)c1cc(C(=O)N2CCOC3(CCCC3)C2)no1 the screen gave 15.49%. For O=C(NCC1COCc2c(-c3cccnc3)nnn2C1)c1cccs1 (centres undefined) the result was 9.871%. For COc1ccc(F)cc1-n1cnc(CCNC(C)=O)c1 the result was 7.625%. COCCN1CCC(NCc2cccc(C)c2)C1 (centres undefined) gave 14.77%. Result for CCOCc1nnc2n1CCN(Cc1c(C)noc1C)CC2 was 4.482%.

CC(C)NC(=O)CSc1nc2c(cnn2CCO)c(=O)[nH]1 read 1.127%. CCn1nc(C)c(CCNC(=O)C2CCCN(C(C)=O)C2)c1C (centres undefined) read 13.9%. Cn1cncc1CN1CC[C@](C)(O)[C@@H](Oc2cccc(F)c2)C1 read 4.941%. With CC(C)(NS(C)(=O)=O)c1nc(-c2ccc(F)c(F)c2)no1 the screen gave 20.43%. With Cn1cc(Br)c(=O)c(NS(=O)(=O)c2ccc(F)cc2)c1 the screen gave 11.96%. For Cc1nnc2n1CCN(C(=O)c1cc(Cl)c[nH]1)C2 the result was 10.2%. With CSc1ccc(C(=O)N(c2ccc(F)cn2)C2CCOCC2)o1 the screen gave 9.524%. Result for Cc1noc([C@H]2COC[C@H]3CN(C(=O)Cc4ccccc4F)C[C@H]32)n1 was 16.43%.

c1cc(-c2nnc(C3CCCN(CC4CCCCC4)C3)o2)ccn1 (centres undefined) gave 10.36%. With CC(C)(C)n1nc(C2CC2)cc1C(=O)NCC1(C(N)=O)CCOCC1 the screen gave 12.5%. Cc1ccccc1C(O)c1ccncc1 (centres undefined) read 18.95%. With O=C(CCN1CCC(C(=O)c2cc(F)ccc2F)CC1)NC1CCCC1 the screen gave 17.58%. With NC(=O)c1ccc(N2CCN(CCCc3cn[nH]c3)CC2)cc1 the screen gave 18.93%. CCOc1ccc(CC(=O)N2CCN(c3nccn3CC)CC2)cc1 gave 8.609%. CNS(=O)(=O)c1cnccc1N1CCN(C(C)C)CC1 gave 7.182%. Result for Cn1cc(-c2ccnc(NCC3CC3)n2)cn1 was 5.479%.

With CC(C)(C)C(=O)NCCCn1cncn1 the screen gave -9.409%. COc1cc(C2CC(=O)Nc3c2nc2n3CCCC2)cc2c1OCO2 (centres undefined) read 14.99%. Result for CN(CC(=O)N1CCCC1c1cnn(C)c1)Cc1ccccc1 (centres undefined) was 14.53%. CCCc1noc(CCC(=O)N2CCCC2c2cccc(OC)c2)n1 (centres undefined) read 20.56%. With CC(C)CNC(=O)c1nc2c(s1)CCN(C(=O)c1cccnc1)CC2 the screen gave 15.33%. O=C(c1ccc[nH]1)N1CCC2(CC1)CC(Oc1cccnc1)CO2 (centres undefined) gave 0.625%. For Cc1noc(C)c1-c1cncc(C2CCCN2Cc2cncnc2)n1 (centres undefined) the result was 12.89%. With CCN(Cc1ccccc1)C(=O)CCN1CC(O)C1 the screen gave 30.03%.

With CCCN1C[C@H]2CC[C@@H]1CN(c1nnc(C(C)C)s1)C2 the screen gave 9.309%. Cn1c(CN2CCOC(c3nc(C(C)(C)C)n[nH]3)C2)nnc1C1CC1 (centres undefined) gave 13.19%. For CCCc1noc(CN2CCCCC2Cn2cncn2)n1 (centres undefined) the result was 14.75%. With Cc1ccc(C(=O)N2CC(c3cccnc3)C2)cc1N1CCNC1=O the screen gave 14.53%. For CCN1C(=O)CCC12CCCN(Cc1nccs1)C2 (centres undefined) the result was 1.648%. For NCCc1n[nH]c(=O)n1-c1cccc(Cl)c1Cl the result was 2.558%. For O=C(NS(=O)(=O)Cc1ccc(F)cc1)C1CCOc2ccccc21 (centres undefined) the result was 19.93%. O=C(c1ccc(F)cc1)N1CCC2(CC1)CC(N1CCOCC1)C2 gave 18.27%.

O=C(NCCn1cnc(C2CCCC2)cc1=O)c1ccc(=O)[nH]n1 gave 7.914%. With Cc1ccc(C)n1-c1c(C(=O)NCC(C)Cn2cccn2)cnn1C (centres undefined) the screen gave 16.91%. CCN(CC)C(=O)Nc1ccc(N2CCSCC2)cc1C read 17.66%. Cn1cc(-c2cc(C(F)F)n3nc(CCC(=O)O)nc3n2)cn1 gave 3.514%. For OC(CNC1CCOCC1)c1ccc(Cl)c(F)c1 (centres undefined) the result was 27.69%. Cc1cc(C2CCC2)nc(NCC(C)(C)N2CCCC2)n1 read 15.82%. CC(=O)c1ccc(N2CCC3(CCC(=O)N(C4CC4)C3)CC2)nc1 read 13.65%. Cc1nc(-c2cc(C(=O)N3CCCN(C)CC3)c3ccccn23)cn1C read 18.3%.

For reference, 4 entries once more:

{"smiles": "CSc1ccc(C(=O)N(c2ccc(F)cn2)C2CCOCC2)o1", "inhibition": 9.524}
{"smiles": "CC(C)NC(=O)CSc1nc2c(cnn2CCO)c(=O)[nH]1", "inhibition": 1.127}
{"smiles": "Cc1cc(C2CCC2)nc(NCC(C)(C)N2CCCC2)n1", "inhibition": 15.82}
{"smiles": "CC(C)c1cc(C(=O)N2CCOC3(CCCC3)C2)no1", "inhibition": 15.49}